Measurements as given in patent publication US20040209841A1, “Association compound of trehalose or maltitol with metal ion compound” (priority 2001, published 2004).

Legend:
[1] = Suppressing effect on the formation of scum during the cooking of boiled foods (Experiment 10)
[2] = Elution of minerals from boiled foods during the cooking (Experiment 11)
[3] = filtrate after removing scum, pork, 10% (w/w) saccharide

## OC[C@H]1O[C@@H](O[C@H]2O[C@H](CO)[C@@H](O)[C@H](O)[C@H]2O)[C@H](O)[C@@H](O)[C@@H]1O [Neotrehalose, neotrehalose]
[1]; 10% (w/w) saccharide
  Calcium in scum: 0.090 mg
  Magnesium in scum: 0.042 mg
  Potassium in scum: 0.024 mg
  Sodium in scum: 0.237 mg
[1]; 30 g pork, 400 ml 10% (w/w) saccharide, boiled five minutes
  Weight of scum: 1.942 g
[1]; no saccharide = 100
  Calcium in scum (%): 77%
  Magnesium in scum (%): 75%
  Potassium in scum (%): 104%
  Sodium in scum (%): 96%
  Weight of scum (%): 86%
[2]; [3]
  Ca in filtrate: 0.957 mg
  K in filtrate: 6.060 mg
  Mg in filtrate: 1.148 mg
  Na in filtrate: 3.880 mg
[2]; no saccharide = 100
  Ca in filtrate (%): 99%
  Ca total amount eluted (%): 97%
  K in filtrate (%): 96%
  K total amount eluted (%): 96%
  Mg in filtrate (%): 99%
  Mg total amount eluted (%): 98%
  Na in filtrate (%): 113%
  Na total amount eluted (%): 112%
[2]; sum of scum (Table 14) and filtrate (Table 15)
  Ca total amount eluted from 30 grams of pork: 1.047 mg
[2]; sum of scum and filtrate
  K total amount eluted from 30 grams of pork: 6.084 mg
  Mg total amount eluted from 30 grams of pork: 1.190 mg
  Na total amount eluted from 30 grams of pork: 4.117 mg
